Some of the results follow. Repeats are few or missing, and single values can be far off.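 Imaging used 1,536-well plates; nuclei positive for cleaved PARP by antibody were divided by total DNA-stained nuclei to yield the apoptosis fraction. Doses for screening kept most cells viable, and cell lines differ markedly in resting and induced cleaved-PARP levels.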

The assay relates to CBRC008 (line from a melanoma biopsy). Kind of assay: cleaved PARP positive nuclei fraction relative to DMSO control; melanoma cells; higher = more apoptosis. The note with it: library dose: low library concentration; 72 h.
Regarding `CNC(=O)c1cc(Oc2ccc(NC(=O)Nc3ccc(Cl)c(C(F)(F)F)c3)cc2)ccn1` [sorafenib] + Cn1c(Nc2ccc(C(F)(F)F)cc2)nc2cc(Oc3ccnc(-c4ncc(C(F)(F)F)[nH]4)c3)ccc21 [CHIR265] (first compound 0.4 µM, partner dose 0.08 µM), the “cleaved PARP positive nuclei fraction” value was 55.6%. In the case of `Cc1cc(Nc2cc(N3CCN(C)CC3)nc(/C=C/c3ccccc3)n2)n[nH]1` + NC1(c2ccc(-c3nc4ccn5c(=O)[nH]nc5c4cc3-c3ccccc3)cc2)CCC1 [MK2206] (first compound 0.04 µM, partner dose 0.4 µM), the “cleaved PARP positive nuclei fraction” value turned out to be 239%.

Turning to `CC(C)C[C@H](NC(=O)[C@H](Cc1ccccc1)NC(=O)c1cnccn1)B(O)O` [Bortezomib] + CS(=O)(=O)CCNCc1ccc(-c2ccc3ncnc(Nc4ccc(OCc5cccc(F)c5)c(Cl)c4)c3c2)o1 [lapatinib] (first compound 0.001 µM, partner dose 0.8 µM), the “cleaved PARP positive nuclei fraction” value was 213%. In the case of `CO[C@H]1C[C@@H]2CC[C@@H](C)[C@@](O)(O2)C(=O)C(=O)N2CCCC[C@H]2C(=O)O[C@H]([C@H](C)C[C@@H]2CC[C@@H](OCCO)[C@H](OC)C2)CC(=O)[C@H](C)/C=C(\C)[C@@H](O)[C@@H](OC)C(=O)[C@H](C)C[C@H](C)/C=C/C=C/C=C/1C` [everolimus] + Cn1nnc2c(C(N)=O)ncn2c1=O [temozolomide] (first compound 0.02 µM, partner dose 2 µM), the “cleaved PARP positive nuclei fraction” value came out at 333%. Consider `O=C(O)[C@@H]1[O][Sb](=[O])([O][Sb]2(=[O])[O][C@H]([C@H](O)CO)[C@H](O)[C@H](C(=O)O)[O]2)[O][C@H]([C@H](O)CO)[C@@H]1O` (stereo partly drawn) [stibogluconate] + C#Cc1cccc(Nc2ncnc3cc(OCCOC)c(OCCOC)cc23)c1 [erlotinib] (first compound 2 µM, partner dose 0.8 µM), for which the “cleaved PARP positive nuclei fraction” value turned out to be 76.6%. As to `C=C(c1ccc(C(=O)O)cc1)c1cc2c(cc1C)C(C)(C)CCC2(C)C` [Bexarotene] + Nc1nc(F)nc2c1ncn2[C@@H]1O[C@H](CO)[C@@H](O)[C@@H]1O [fludarabine] (first compound 2 µM, partner dose 0.2 µM), the “cleaved PARP positive nuclei fraction” value was 86.6%. Turning to `CNC(=O)c1cc(Oc2ccc(NC(=O)Nc3ccc(Cl)c(C(F)(F)F)c3)cc2)ccn1` [sorafenib] + C=CCNC1=C2C[C@@H](C)C[C@H](OC)[C@H](O)[C@@H](C)/C=C(\C)[C@H](OC(N)=O)[C@@H](OC)/C=C\C=C(/C)C(=O)NC(=CC1=O)C2=O [Tanespimycin] (first compound 0.4 µM, partner dose 0.002 µM), the “cleaved PARP positive nuclei fraction” value stood at 130%.

As for `Cn1c(=O)n(-c2ccc(C(C)(C)C#N)cc2)c2c3cc(-c4cnc5ccccc5c4)ccc3ncc21` + Nc1ncn([C@H]2C[C@H](O)[C@@H](CO)O2)c(=O)n1 [decitabine] (first compound 0.004 µM, partner dose 0.1 µM), the “cleaved PARP positive nuclei fraction” value came to 152%. As for `CC(C)C[C@H](NC(=O)[C@H](Cc1ccccc1)NC(=O)c1cnccn1)B(O)O` [Bortezomib] + C=C(c1ccc(C(=O)O)cc1)c1cc2c(cc1C)C(C)(C)CCC2(C)C [Bexarotene] (first compound 0.001 µM, partner dose 2 µM), the figure is 475%; as for `CCCS(=O)(=O)Nc1ccc(F)c(C(=O)c2c[nH]c3ncc(Cl)cc23)c1F` + COCC[n+]1c2c(n(Cc3cnccn3)c1C)C(=O)c1ccccc1C2=O [YM155] (first compound 0.08 µM, partner dose 0.0004 µM), 109%. Consider `CN1CCN(c2ccc3nc(-c4c(N)c5c(F)cccc5[nH]c4=O)[nH]c3c2)CC1` [Dovitinib] + Cn1c(Nc2ccc(C(F)(F)F)cc2)nc2cc(Oc3ccnc(-c4ncc(C(F)(F)F)[nH]4)c3)ccc21 [CHIR265] (first compound 0.1 µM, partner dose 0.08 µM), for which the “cleaved PARP positive nuclei fraction” value came to 45.5%. Regarding `Cn1c(=O)n(-c2ccc(C(C)(C)C#N)cc2)c2c3cc(-c4cnc5ccccc5c4)ccc3ncc21` + Cn1nnc2c(C(N)=O)ncn2c1=O [temozolomide] (first compound 0.004 µM, partner dose 2 µM), the “cleaved PARP positive nuclei fraction” value is 99.2%. As to `CC(C)C[C@H](NC(=O)[C@H](Cc1ccccc1)NC(=O)c1cnccn1)B(O)O` [Bortezomib] + C[C@@H](Oc1cc(-c2cnn(C3CCNCC3)c2)cnc1N)c1c(Cl)ccc(F)c1Cl [Crizotinib] (first compound 0.001 µM, partner dose 0.2 µM), the “cleaved PARP positive nuclei fraction” value turned out to be 709%. In the case of `O=C(O)[C@@H]1[O][Sb](=[O])([O][Sb]2(=[O])[O][C@H]([C@H](O)CO)[C@H](O)[C@H](C(=O)O)[O]2)[O][C@H]([C@H](O)CO)[C@@H]1O` (stereo partly drawn) [stibogluconate] + OCc1c[nH]c2ccccc12 [Indole-3-carbinol] (first compound 2 µM, partner dose 0.8 µM), the “cleaved PARP positive nuclei fraction” value turned out to be 129%. As for `C=C(c1ccc(C(=O)O)cc1)c1cc2c(cc1C)C(C)(C)CCC2(C)C` [Bexarotene] + Cn1nnc2c(C(N)=O)ncn2c1=O [temozolomide] (first compound 2 µM, partner dose 2 µM), the “cleaved PARP positive nuclei fraction” value was 231%. Consider `Nc1ncn([C@H]2C[C@H](O)[C@@H](CO)O2)c(=O)n1` [decitabine] + C[C@]1(c2nc3c(C(N)=O)cccc3[nH]2)CCCN1 [Veliparib] (first compound 0.1 µM, partner dose 1.4 µM), for which the “cleaved PARP positive nuclei fraction” value stood at 139%. `CN1CCN(c2ccc3nc(-c4c(N)c5c(F)cccc5[nH]c4=O)[nH]c3c2)CC1` [Dovitinib] + Nc1nc(F)nc2c1ncn2[C@@H]1O[C@H](CO)[C@@H](O)[C@@H]1O [fludarabine] (first compound 0.1 µM, partner dose 0.2 µM): the “cleaved PARP positive nuclei fraction” value was 89.3%. Regarding `CO[C@H]1C[C@@H]2CC[C@@H](C)[C@@](O)(O2)C(=O)C(=O)N2CCCC[C@H]2C(=O)O[C@H]([C@H](C)C[C@@H]2CC[C@@H](OCCO)[C@H](OC)C2)CC(=O)[C@H](C)/C=C(\C)[C@@H](O)[C@@H](OC)C(=O)[C@H](C)C[C@H](C)/C=C/C=C/C=C/1C` [everolimus] + Clc1ccc(Nc2nnc(Cc3ccncc3)c3ccccc23)cc1 [vatalanib] (first compound 0.02 µM, partner dose 2 µM), the “cleaved PARP positive nuclei fraction” value stood at 264%. `CO[C@H]1C[C@@H]2CC[C@@H](C)[C@@](O)(O2)C(=O)C(=O)N2CCCC[C@H]2C(=O)O[C@H]([C@H](C)C[C@@H]2CC[C@@H](OCCO)[C@H](OC)C2)CC(=O)[C@H](C)/C=C(\C)[C@@H](O)[C@@H](OC)C(=O)[C@H](C)C[C@H](C)/C=C/C=C/C=C/1C` [everolimus] + C#Cc1cccc(Nc2ncnc3cc(OCCOC)c(OCCOC)cc23)c1 [erlotinib] (first compound 0.02 µM, partner dose 0.8 µM): the “cleaved PARP positive nuclei fraction” value came to 312%. `CS(=O)(=O)CCNCc1ccc(-c2ccc3ncnc(Nc4ccc(OCc5cccc(F)c5)c(Cl)c4)c3c2)o1` [lapatinib] + OCc1c[nH]c2ccccc12 [Indole-3-carbinol] (first compound 0.8 µM, partner dose 0.8 µM): the “cleaved PARP positive nuclei fraction” value amounted to 122%.

In the case of `C[C@@H](Oc1cc(-c2cnn(C3CCNCC3)c2)cnc1N)c1c(Cl)ccc(F)c1Cl` [Crizotinib] + Nc1ccn([C@@H]2O[C@H](CO)[C@@H](O)C2(F)F)c(=O)n1 [gemcitabine] (first compound 0.2 µM, partner dose 0.0004 µM), the “cleaved PARP positive nuclei fraction” value came to 148%. On to `O=C(O)[C@@H]1[O][Sb](=[O])([O][Sb]2(=[O])[O][C@H]([C@H](O)CO)[C@H](O)[C@H](C(=O)O)[O]2)[O][C@H]([C@H](O)CO)[C@@H]1O` (stereo partly drawn) [stibogluconate] + COc1ccc(Cl)c(Nc2nc3ccccc3nc2NS(=O)(=O)c2cccc(NC(=O)C(C)(C)N)c2)c1 [XL147] (first compound 2 µM, partner dose 0.8 µM), for which the “cleaved PARP positive nuclei fraction” value amounted to 332%. In the case of `Cc1cc(Nc2cc(N3CCN(C)CC3)nc(/C=C/c3ccccc3)n2)n[nH]1` + C#Cc1cccc(Nc2ncnc3cc(OCCOC)c(OCCOC)cc23)c1 [erlotinib] (first compound 0.04 µM, partner dose 0.8 µM), the “cleaved PARP positive nuclei fraction” value amounted to 191%. As for `Nc1ccn([C@@H]2O[C@H](CO)[C@@H](O)C2(F)F)c(=O)n1` [gemcitabine] + COc1ccc(Cl)c(Nc2nc3ccccc3nc2NS(=O)(=O)c2cccc(NC(=O)C(C)(C)N)c2)c1 [XL147] (first compound 0.0004 µM, partner dose 0.8 µM), the “cleaved PARP positive nuclei fraction” value came out at 54.6%.

As for `Cc1cc(Nc2cc(N3CCN(C)CC3)nc(/C=C/c3ccccc3)n2)n[nH]1` + CNC(=O)c1cc(Oc2ccc(NC(=O)Nc3ccc(Cl)c(C(F)(F)F)c3)cc2)ccn1 [sorafenib] (first compound 0.04 µM, partner dose 0.4 µM), the “cleaved PARP positive nuclei fraction” value amounted to 46.4%.

On to `O=C(O)c1ccc2c(c1)nc(Nc1cccc(Cl)c1)c1ccncc12` + Nc1nc(F)nc2c1ncn2[C@@H]1O[C@H](CO)[C@@H](O)[C@@H]1O [fludarabine] (first compound 0.4 µM, partner dose 0.2 µM), for which the “cleaved PARP positive nuclei fraction” value is 134%.

Regarding `O=C(O)c1ccc2c(c1)nc(Nc1cccc(Cl)c1)c1ccncc12` + Nc1cccc2c1CN(C1CCC(=O)NC1=O)C2=O [lenalidomide] (first compound 0.4 µM, partner dose 1 µM), the “cleaved PARP positive nuclei fraction” value is 251%. Turning to `Nc1ncn([C@H]2C[C@H](O)[C@@H](CO)O2)c(=O)n1` [decitabine] + OCc1c[nH]c2ccccc12 [Indole-3-carbinol] (first compound 0.1 µM, partner dose 0.8 µM), the “cleaved PARP positive nuclei fraction” value was determined as 248%.
